PubChem BioAssay AID1159584 – Peter MacCallum Cancer Centre | 2016

Aim: 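Knock-downs that harm CDH1-null cells more than parental MCF10A cells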 (primary screen)
Cell system: human MCF10A breast epithelial cells, parental and CDH1-null
Reagents: siRNA against human genes
Measurement: 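ATP luminescence (CellTiter-Glo) viability per line relative to mean mock wells over all plates, and the ratio of CDH1-null to parental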
Scale: CDH1-null / parental viability ratio: higher = CDH1-null cells survive relatively better than parental; CDH1-null viability vs mock: higher = more viable CDH1-null cells; parental viability vs mock: higher = more viable parental cells
The deposit covers about 18,000 reagents; below is a random part of them. Not given: the amount of reagent, the time to read-out.

target gene | CDH1-null / parental viability ratio | CDH1-null viability vs mock (fraction of mock) | parental viability vs mock (fraction of mock)
TRMT112 | 1.32 | 0.79 | 0.6
ADCY10 | 1 | 0.96 | 0.96
CPNE2 | 1.15 | 0.62 | 0.54
SEMA4B | 0.75 | 0.46 | 0.61
EIF3E | 1.38 | 0.66 | 0.48
ACSL1 | 0.72 | 0.55 | 0.76
C8orf76 | 0.84 | 0.74 | 0.88
PARP6 | 0.9 | 0.63 | 0.7
HYLS1 | 1.05 | 0.44 | 0.42
RPL31 | 1.07 | 0.32 | 0.3
SEC22A | 0.98 | 1.02 | 1.04
GOLGA6A | 0.98 | 0.84 | 0.86
CIT | 0.81 | 0.58 | 0.72
GPM6A | 1.42 | 1.19 | 0.84
FUT6 | 1.13 | 1.02 | 0.9
CRP | 0.96 | 0.73 | 0.76
DCSTAMP | 1.13 | 0.88 | 0.78
PGLYRP4 | 0.94 | 0.92 | 0.98
GPC5 | 0.99 | 0.94 | 0.95
KIF13A | 1 | 1.1 | 1.1
TNR | 1.08 | 0.93 | 0.86
DOC2A | 0.98 | 0.81 | 0.83
FAM187B | 0.92 | 1.08 | 1.17

Targets listed so far whose gene name begins with F or f:
target gene | CDH1-null / parental viability ratio | CDH1-null viability vs mock (fraction of mock) | parental viability vs mock (fraction of mock)
FUT6 | 1.13 | 1.02 | 0.9
FAM187B | 0.92 | 1.08 | 1.17

More reagents follow.
target gene | CDH1-null / parental viability ratio | CDH1-null viability vs mock (fraction of mock) | parental viability vs mock (fraction of mock)
PLAAT4 | 0.97 | 1.01 | 1.04
SUSD2 | 0.95 | 0.57 | 0.6
ECHDC2 | 0.8 | 0.56 | 0.7
IL9 | 0.85 | 0.78 | 0.92
CNTRL | 0.84 | 0.86 | 1.02
ITSN1 | 1.03 | 0.62 | 0.6
MYH13 | 1.14 | 0.8 | 0.7
GDF2 | 1.04 | 0.5 | 0.48
TRIM51 | 0.96 | 0.8 | 0.83
CHGB | 1.01 | 0.79 | 0.78
DAD1 | 1.1 | 0.98 | 0.89
THAP2 | 1.06 | 0.95 | 0.9
POLG2 | 0.93 | 0.91 | 0.98
DNAJB12 | 1.21 | 0.98 | 0.81
LRIG2 | 1.3 | 0.6 | 0.46
OLFML1 | 1.1 | 1 | 0.91
C17orf78 | 0.87 | 0.34 | 0.39
RASL10B | 1.19 | 1.02 | 0.86
CYP2C9 | 1.06 | 1.14 | 1.08
CALD1 | 1.05 | 0.96 | 0.91
MTA3 | 1.19 | 1 | 0.84
FUT9 | 1.06 | 0.88 | 0.83
TRAF5 | 0.83 | 0.68 | 0.82
TREH | 0.9 | 0.81 | 0.9
DLG4 | 0.85 | 0.64 | 0.75
CD68 | 1.09 | 0.98 | 0.9
KCNA3 | 1.14 | 1.21 | 1.06
BIRC3 | 0.96 | 0.94 | 0.98
OR6C2 | 1 | 0.54 | 0.54
WWC2 | 0.81 | 0.73 | 0.9
OR4D1 | 0.96 | 0.5 | 0.52
AQP9 | 1.07 | 0.98 | 0.92
MAF1 | 1.29 | 0.72 | 0.56
PLEKHB2 | 1.11 | 0.98 | 0.88
PTEN | 1.15 | 0.76 | 0.66
PLEKHJ1 | 1.02 | 0.5 | 0.49
CATSPERB | 1.04 | 0.76 | 0.73
MICAL1 | 0.91 | 1.15 | 1.27
CWC22 | 1 | 0.14 | 0.14
ARSB | 1.02 | 0.63 | 0.62
RPL7A | 1.43 | 0.4 | 0.28
TMT1B | 0.99 | 0.9 | 0.91
STAT2 | 1.09 | 1.06 | 0.97
RIC8A | 0.86 | 0.94 | 1.09
TARS1 | 1.01 | 0.91 | 0.9
